Laboratory results from the supplement of paper PMC9233669.
Variants at the floor of the assay are shown more often than the library holds them.

Experiments:
biotinyl-Trp-oxazolone = assay: self-aminoacylation, catalytic enhancement (BWO) (fold over background); higher = more active; k-Seq, kA / k0A0; sequences stand for … in GGGAAUGGAUCCACAUCUACGAAUUC…UUCACUGCAGACUUGACGAAGCUG
Summary of the method: (§1)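 Mutagenized RNA pools with a 21-nt variable region (0.43 μM) were reacted with each biotinyl-aminoacyl-oxazolone at 2–1250 μM for 90 minutes at room temperature, in 50 μL HEPES/NaCl/KCl/MgCl2/CaCl2 buffer containing 5% acetonitrile at pH 6.9–7.0. RNA captured on streptavidin was quantified by triplicate qPCR and by Illumina sequencing. The fraction reacted for each sequence was fit to a pseudo-first-order model with bootstrapping, and catalytic enhancement is the median kA divided by the uncatalyzed rate, taken as the low-activity peak of a bimodal Gaussian fit.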

biotinyl-Leu-oxazolone = assay: self-aminoacylation, catalytic enhancement (BLO) (fold over background); higher = more active; k-Seq, kA / k0A0; sequences stand for … in GGGAAUGGAUCCACAUCUACGAAUUC…UUCACUGCAGACUUGACGAAGCUG
Summary of the method: as §1

biotinyl-Val-oxazolone = assay: self-aminoacylation, catalytic enhancement (BVO) (fold over background); higher = more active; k-Seq, kA / k0A0; sequences stand for … in GGGAAUGGAUCCACAUCUACGAAUUC…UUCACUGCAGACUUGACGAAGCUG
Summary of the method: as §1

biotinyl-Ile-oxazolone = assay: self-aminoacylation, catalytic enhancement (BIO) (fold over background); higher = more active; k-Seq, kA / k0A0; sequences stand for … in GGGAAUGGAUCCACAUCUACGAAUUC…UUCACUGCAGACUUGACGAAGCUG
Summary of the method: as §1

biotinyl-Met-oxazolone = assay: self-aminoacylation, catalytic enhancement (BMO) (fold over background); higher = more active; k-Seq, kA / k0A0; sequences stand for … in GGGAAUGGAUCCACAUCUACGAAUUC…UUCACUGCAGACUUGACGAAGCUG
Summary of the method: as §1

biotinyl-Phe-oxazolone = assay: self-aminoacylation, catalytic enhancement (BFO) (fold over background); higher = more active; k-Seq, kA / k0A0; sequences stand for … in GGGAAUGGAUCCACAUCUACGAAUUC…UUCACUGCAGACUUGACGAAGCUG
Summary of the method: as §1

Row | Sequence | self-aminoacylation (biotinyl-Trp-oxazolone) | self-aminoacylation (biotinyl-Leu-oxazolone) | self-aminoacylation (biotinyl-Val-oxazolone) | self-aminoacylation (biotinyl-Ile-oxazolone) | self-aminoacylation (biotinyl-Met-oxazolone) | self-aminoacylation (biotinyl-Phe-oxazolone)
1 | CCACACUUCAAGCAUUCGGCC [Fam1B.1 aminoacylation ribozyme variant] | 1.69 | 1.63 | 1.99 | 1.84 | 1.25 | 0.749
2 | CCACACUUCAAGCCAGCGGUC [Fam1B.1 aminoacylation ribozyme variant] | 1.28 | 1.44 | 1.47 | 1.36 | 0.988 | 0.92
3 | CCACACUUCAAGCGUUCGGUC [Fam1B.1 aminoacylation ribozyme variant] | 0.81 | 0.844 | 1.13 | 0.949 | 1.01 | 0.609
4 | CCACACUUCAAGCUAUCAGUC [Fam1B.1 aminoacylation ribozyme variant] | 0.589 | 0.651 | 0.949 | 0.82 | 0.658 | 1.16
5 | CCACACUUCAAGCUAUCGAUC [Fam1B.1 aminoacylation ribozyme variant] | 0.519 | 0.537 | 0.766 | 0.681 | 0.507 | 1.26
6 | CCACACUUCAAGCUAUCGGUC [Fam1B.1 aminoacylation ribozyme variant] | 0.677 | 0.675 | 0.961 | 0.846 | 0.621 | 1.05
7 | CCACACUUCAAGGAAUCGAUC [Fam1B.1 aminoacylation ribozyme variant] | 0.395 | 0.416 | 0.489 | 0.484 | 0.419 | 0.608
8 | CCACACUUCAAGGAAUCGCUC [Fam1B.1 aminoacylation ribozyme variant] | 1.59 | 1.99 | 1.44 | 1.62 | 1.48 | 0.771
9 | CCACACUUCAAGGAAUCGGCC [Fam1B.1 aminoacylation ribozyme variant] | 4.4 | 2.39 | 2.4 | 1.89 | 2.08 | 1.42
10 | CCACACUUCAAGGGAUCGGUC [Fam1B.1 aminoacylation ribozyme variant] | 1.38 | 1.48 | 0.944 | 0.943 | 1.34 | 1.05
11 | CCACACUUCAAGUAAACGGUC [Fam1B.1 aminoacylation ribozyme variant] | 0.404 | 0.524 | 0.707 | 0.6 | 0.584 | 0.705
12 | CCACACUUCAAGUAAUCGGUU [Fam1B.1 aminoacylation ribozyme variant] | 1.71 | 1.16 | 1.28 | 1.17 | 1.11 | 1.65
13 | CCACACUUCAAGUAAUCUGUC [Fam1B.1 aminoacylation ribozyme variant] | 0.361 | 0.449 | 0.496 | 0.451 | 0.47 | 0.818
14 | CCACACUUCAAUCAAUCGGGC [Fam1B.1 aminoacylation ribozyme variant] | 1.45 | 1.16 | 1.79 | 1.4 | 1.55 | 0.522
15 | CCACACUUCACGCAACCGGUC [Fam1B.1 aminoacylation ribozyme variant] | 0.831 | 1.55 | 1.55 | 1.24 | 1.21 | 0.978
16 | CCACACUUCACGCAAGCGGUC [Fam1B.1 aminoacylation ribozyme variant] | 0.776 | 1.22 | 1.41 | 1.31 | 1.33 | 0.897
17 | CCACACUUCACGCAAUAGGUC [Fam1B.1 aminoacylation ribozyme variant] | 0.618 | 0.747 | 0.868 | 0.814 | 0.763 | 0.901
18 | CCACACUUCACGCAAUCGGUC [Fam1B.1 aminoacylation ribozyme variant] | 0.865 | 0.883 | 1.13 | 0.959 | 0.853 | 0.864
19 | CCACACUUCACGCAAUCUGUC [Fam1B.1 aminoacylation ribozyme variant] | 0.464 | 0.447 | 0.678 | 0.481 | 0.472 | 0.436
20 | CCACACUUCACGCAAUGGGUC [Fam1B.1 aminoacylation ribozyme variant] | 0.782 | 1.18 | 1.58 | 1.05 | 0.99 | 0.831
21 | CCACACUUCACUCAAUCGGUC [Fam1B.1 aminoacylation ribozyme variant] | 0.649 | 0.628 | 0.694 | 0.705 | 0.59 | 0.527
22 | CCACACUUCAGGCAAGCGGUC [Fam1B.1 aminoacylation ribozyme variant] | 0.796 | 1.06 | 1.33 | 1.32 | 1.31 | 0.61
23 | CCACACUUCAGGCAAUCGGUA [Fam1B.1 aminoacylation ribozyme variant] | 1.04 | 1.23 | 1.33 | 1.24 | 1.43 | 1.97
24 | CCACACUUCAUACAAUCGGUC [Fam1B.1 aminoacylation ribozyme variant] | 0.726 | 0.703 | 0.744 | 0.618 | 0.608 | 0.729
25 | CCACACUUCAUGCAAUCAGUC [Fam1B.1 aminoacylation ribozyme variant] | 0.427 | 0.634 | 0.751 | 0.731 | 0.628 | 0.895
26 | CCACACUUCAUGUAAUCGGUC [Fam1B.1 aminoacylation ribozyme variant] | 0.435 | 0.6 | 0.72 | 0.722 | 0.506 | 0.62

Row | Sequence | self-aminoacylation (biotinyl-Trp-oxazolone) | self-aminoacylation (biotinyl-Leu-oxazolone) | self-aminoacylation (biotinyl-Val-oxazolone) | self-aminoacylation (biotinyl-Ile-oxazolone) | self-aminoacylation (biotinyl-Met-oxazolone) | self-aminoacylation (biotinyl-Phe-oxazolone)
27 | CCACACUUCCAACAAUCGGUC [Fam1B.1 aminoacylation ribozyme variant] | 0.919 | 0.729 | 0.829 | 0.697 | 0.814 | 1.55
28 | CCACACUUCCAGCAAUGGGUC [Fam1B.1 aminoacylation ribozyme variant] | 0.884 | 0.88 | 1.38 | 1.34 | 0.956 | 1.22
29 | CCACACUUCGAGCAAUGGGUC [Fam1B.1 aminoacylation ribozyme variant] | 0.654 | 0.845 | 0.934 | 1 | 0.798 | 0.642
30 | CCACACUUCUAGGAAUCGGUC [Fam1B.1 aminoacylation ribozyme variant] | 0.948 | 1.08 | 1.04 | 0.865 | 0.883 | 1.03
31 | CCACACUUGAAACAAUCGGUC [Fam1B.1 aminoacylation ribozyme variant] | 1.15 | 0.61 | 0.885 | 0.893 | 0.892 | 1.07
32 | CCACACUUGAAGCAAUCGGGC [Fam1B.1 aminoacylation ribozyme variant] | 2.26 | 1.57 | 2.63 | 1.55 | 1.34 | 5.71
33 | CCACACUUGAAGCAAUCUGUC [Fam1B.1 aminoacylation ribozyme variant] | 0.36 | 0.288 | 0.406 | 0.442 | 0.434 | 0.447
34 | CCACAGUCCAAGCAAUCGGUC [Fam1B.1 aminoacylation ribozyme variant] | 1.73 | 1.1 | 1.48 | 0.927 | 1.06 | 1.46
35 | CCACAGUUCAAGCAAUCUGUC [Fam1B.1 aminoacylation ribozyme variant] | 0.346 | 0.371 | 0.54 | 0.46 | 0.305 | 0.586
36 | CCACAGUUCAAGCAAUUGGUC [Fam1B.1 aminoacylation ribozyme variant] | 0.805 | 0.819 | 0.727 | 0.856 | 0.895 | 0.514
37 | CCACAGUUCCAGCAAUCGGUC [Fam1B.1 aminoacylation ribozyme variant] | 0.743 | 1.71 | 1.56 | 1.61 | 1.19 | 1.17
38 | CCACAUUGCAAGCAAUCGGUC [Fam1B.1 aminoacylation ribozyme variant] | 1.58 | 1.87 | 1.68 | 1.75 | 1.67 | 1.99
39 | CCACAUUUAAAGCAAUCGGUC [Fam1B.1 aminoacylation ribozyme variant] | 0.774 | 1.14 | 1.13 | 1.23 | 1.03 | 1.12
40 | CCACAUUUCAAGCAAUCGAUC [Fam1B.1 aminoacylation ribozyme variant] | 0.66 | 0.689 | 0.951 | 0.834 | 0.642 | 0.898
41 | CCACCCUUCAAGCAAACGGUC [Fam1B.1 aminoacylation ribozyme variant] | 0.681 | 0.789 | 0.911 | 0.73 | 0.611 | 0.74
42 | CCACCCUUCAAGCAAUAGGUC [Fam1B.1 aminoacylation ribozyme variant] | 0.452 | 0.529 | 0.711 | 0.645 | 0.575 | 0.807
43 | CCACGCUUCAAGCAAUCGAUC [Fam1B.1 aminoacylation ribozyme variant] | 0.843 | 0.408 | 0.625 | 0.411 | 0.363 | 1.8
44 | CCACUCUCCAAGCAAUCGGUC [Fam1B.1 aminoacylation ribozyme variant] | 1.19 | 0.968 | 1.06 | 1.34 | 1.25 | 1.24
45 | CCACUCUUCAAGCAAACGGUC [Fam1B.1 aminoacylation ribozyme variant] | 0.517 | 0.781 | 0.856 | 0.809 | 0.695 | 0.873
46 | CCACUCUUCAAGCAAUCCGUC [Fam1B.1 aminoacylation ribozyme variant] | 1.44 | 0.701 | 1.12 | 1.06 | 0.765 | 0.865
47 | CCACUCUUCCAGCAAUCGGUC [Fam1B.1 aminoacylation ribozyme variant] | 0.87 | 1.19 | 1.5 | 1.32 | 1.28 | 1.01
48 | CCACUCUUCUAGCAAUCGGUC [Fam1B.1 aminoacylation ribozyme variant] | 0.765 | 0.692 | 0.977 | 0.867 | 0.745 | 1.02
49 | CCACUUCAAACAUUCGGUCUG [Fam1A.1 aminoacylation ribozyme variant] | 2.73 | 1.46 | 1.9 | 1.82 | 1.53 | 5.58
50 | CCAGACUUCAAGCACUCGGUC [Fam1B.1 aminoacylation ribozyme variant] | 0.871 | 1.23 | 1.22 | 1.32 | 1.3 | 0.947
51 | CCAGACUUCAAUCAAUCGGUC [Fam1B.1 aminoacylation ribozyme variant] | 21.1 | 1.76 | 1.21 | 1.19 | 1.14 | 34.2
